One data set deals with EpCAM on WERI-Rb1 cells (UniProt P16422). In words: flow cytometry and fluorescence microscopy on cells. The following applies: 200 nM aptamer, protein on the cell surface. In general terms: Flow cytometry measures light scatter and fluorescence of single cells or particles in a stream.
For a further data set, the target named is EpCAM on MCF-7 cells (UniProt P16422). The description is as above. The following applies: 200 nM aptamer, protein on the cell surface.
Where [1] appears, read: 2'-OMe pyrimidines, synthetic backbone.

Chains of the proteins cited; added tags and fusions are not shown. Residues count along the entry.
UniProt P16422, 24-314: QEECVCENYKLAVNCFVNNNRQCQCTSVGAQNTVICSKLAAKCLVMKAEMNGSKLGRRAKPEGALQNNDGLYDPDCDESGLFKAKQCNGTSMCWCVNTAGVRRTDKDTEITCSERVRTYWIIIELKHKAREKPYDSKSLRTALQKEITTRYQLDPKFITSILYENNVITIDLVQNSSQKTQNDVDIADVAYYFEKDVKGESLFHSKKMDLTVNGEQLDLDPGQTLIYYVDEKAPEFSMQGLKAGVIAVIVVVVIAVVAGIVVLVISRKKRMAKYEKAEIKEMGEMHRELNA

Here are results for two sequences from publication PMC4307906.

The exact form of at least one protein or probe is not confirmed. Results from cells or extracts need not show a direct contact. No signal at the amounts used counts as a negative.

With GCGACUGGUUACCCGGUCG [ScrApt (ScrDT3)], the binding result with EpCAM on WERI-Rb1 cells (setting [1]) and in the data set with EpCAM on MCF-7 cells (setting [1]) was “no binding” each time.

Take GCGACUGGUUACCCGGUCG [EpApt (EpDT3)]: the binding result with EpCAM on WERI-Rb1 cells (weaker than on MCF-7, 2'-F pyrimidines) is “binds”; in the data set with EpCAM on MCF-7 cells (binding decreased by blocking with EpCAM antibody (cell line of blocking test not stated), 2'-F pyrimidines), “binds”.
